Data as given in PubChem BioAssay AID1259308 (NCATS, 2017).
The deposit covers about 59,000 reagents; shown is a random part of them. About 1,510 of them (2.6%) were called active. 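Calls use total luciferase alone and ignore viability, so some active siRNAs may act by altering cell number.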 Reagents against one gene are numbered here. Further read-outs or replicates are left out here.

Purpose: 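Candidate targets for better recombinant protein yield in mammalian cells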 (primary screen)
Cell system: human HEK293 embryonic kidney cells stably expressing firefly luciferase (HEK-CMV-Luc2-Hygro)
Knock-down reagent: single siRNA against human genes, 0.8 pmol siRNA per well
Time to read-out: 72 h
Detection: 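Luciferase light (ONE-Glo) measured on one replicate plate set and viability (CellTiter-Glo) on the other, scaled to a negative control siRNA, with robust z-scores and luciferase per cell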
Reading the numbers: total luciferase, z-score and total luciferase, % of control: higher = more reporter protein produced; luciferase per cell, z-score: higher = more reporter output per viable cell
Hit rule: 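An siRNA counts as active if its total luciferase robust z-score exceeds 3; genes with two or more such siRNAs out of three were retested with fresh siRNAs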
Calls: active = raised luciferase; inactive = no rise

target gene | siRNA no. | total luciferase, z-score | total luciferase, % of control | luciferase per cell, z-score | activity call
DPP10 | 1 | -0.84 | 65.2 | -1.23 | inactive
DPP10 | 2 | 0.59 | 93.6 | 0.641 | inactive
DPP10 | 3 | 0.307 | 88 | 1.2 | inactive
HIPK3 | 1 | 0.821 | 98.2 | -0.000455 | inactive
HIPK3 | 2 | -1.94 | 43.4 | -0.473 | inactive
HIPK3 | 3 | -1.67 | 48.7 | -2.43 | inactive
FRZB | 1 | 3.6 | 153 | 3.15 | active
FRZB | 2 | -0.201 | 77.9 | 0.969 | inactive
FRZB | 3 | 3.24 | 146 | 2.29 | active
MRPS30 | 1 | 0.107 | 84 | 0.632 | inactive
MRPS30 | 2 | 0.457 | 91 | 0.0542 | inactive
MRPS30 | 3 | 0.0531 | 82.9 | -0.0464 | inactive
HLF | 1 | -0.173 | 78.4 | -0.593 | inactive
HLF | 2 | -0.0481 | 80.9 | -0.415 | inactive
HLF | 3 | 0.968 | 101 | 0.366 | inactive
ACSF3 | 1 | 0.645 | 94.7 | 0.342 | inactive
ACSF3 | 2 | 0.375 | 89.3 | 0.285 | inactive
ACSF3 | 3 | 0.63 | 94.4 | 0.0454 | inactive
MARCKS | 1 | -0.276 | 76.4 | -0.0661 | inactive
MARCKS | 2 | 1.37 | 109 | 0.773 | inactive
MARCKS | 3 | -0.00746 | 81.7 | -0.804 | inactive
REM1 | 1 | -0.0214 | 81.5 | 0.0995 | inactive
REM1 | 2 | -0.0901 | 80.1 | -0.358 | inactive
REM1 | 3 | 2.38 | 129 | 1.86 | inactive
CITED2 | 1 | -0.495 | 72 | -0.597 | inactive
CITED2 | 2 | -0.141 | 79.1 | 1.53 | inactive
CITED2 | 3 | 0.308 | 88 | 0.497 | inactive
GPR87 | 1 | -0.0533 | 80.8 | -0.5 | inactive
GPR87 | 2 | 0.0865 | 83.6 | 0.572 | inactive
GPR87 | 3 | -0.436 | 73.2 | -1.02 | inactive
DMRT1 | 1 | -0.0948 | 80 | -0.295 | inactive
DMRT1 | 2 | -0.718 | 67.6 | -0.843 | inactive
DMRT1 | 3 | 1.49 | 112 | 0.849 | inactive
TRAPPC13 | 1 | -1.02 | 61.5 | -1.03 | inactive
TRAPPC13 | 2 | 1.19 | 106 | 0.441 | inactive
TRAPPC13 | 3 | 1.6 | 114 | 0.483 | inactive
ZNRF3 | 1 | -0.0228 | 81.4 | 1.04 | inactive
ZNRF3 | 2 | 0.149 | 84.9 | 0.141 | inactive
ZNRF3 | 3 | 1.74 | 116 | 1.97 | inactive
LYZL1 | 1 | 0.312 | 88.1 | 0.0207 | inactive
LYZL1 | 2 | 0.548 | 92.8 | -0.508 | inactive
LYZL1 | 3 | 0.454 | 90.9 | 0.36 | inactive
MYO1A | 1 | -1.31 | 55.7 | -1.42 | inactive
MYO1A | 2 | -0.263 | 76.7 | -0.956 | inactive
MYO1A | 3 | -0.674 | 68.5 | 0.259 | inactive
CHCT1 | 1 | 0.0341 | 82.6 | -0.203 | inactive
CHCT1 | 2 | 0.614 | 94.1 | 0.54 | inactive
CHCT1 | 3 | 0.0166 | 82.2 | 0.0574 | inactive
CCDC196 | 1 | -0.485 | 72.2 | -0.29 | inactive
CCDC196 | 2 | -0.692 | 68.1 | -0.848 | inactive
CCDC196 | 3 | -0.109 | 79.7 | -0.392 | inactive
PGA5 | 1 | -1.5 | 52.1 | -1.46 | inactive
PGA5 | 2 | 0.567 | 93.2 | 0.272 | inactive
PGA5 | 3 | 0.34 | 88.6 | 0.176 | inactive
IL1RAPL1 | 1 | -0.0801 | 80.3 | -0.238 | inactive
IL1RAPL1 | 2 | 0.936 | 100 | 0.776 | inactive
IL1RAPL1 | 3 | 0.446 | 90.8 | 0.114 | inactive

Called active (from the list above):
target gene | siRNA no. | total luciferase, z-score | total luciferase, % of control | luciferase per cell, z-score | activity call
FRZB | 1 | 3.6 | 153 | 3.15 | active
FRZB | 3 | 3.24 | 146 | 2.29 | active
